# Measured values published in PMC7497631, “Role of Membrane Tension Sensitive Endocytosis and Rho GTPases in the Uptake of the Alzheimer’s Disease Peptide Aβ(1-42)” (ACS Chemical Neuroscience, 2020).
# Tested on: HeLa Flp-In T-REx cells
# Test: Confocal microscopy of colocalization with GFP-GRAF1 structures in cells expressing Cdc42 Q61L
# Assay type: cell-based, human
substance,measurement,setting,value
"Aβ(1-42): Synthetic Aβ(1-42) peptide, conjugated to the HiLyte Fluor HF488 or HF647 at the N-terminus, from Anaspec; applied in highly monomeric form","colocalization with GRAF1, shorter incubation pulse","GFP-GRAF1, mCherry-Cdc42 Q61L, 5 μM HF647-labeled Aβ(1-42), 15 min, confocal microscopy",did not observe colocalization
same,comovement of GRAF1- and peptide-containing vesicles,"GFP-GRAF1, mCherry-Cdc42 Q61L, 15 min pulse of 5 μM Aβ(1-42), time-lapse confocal microscopy",No apparent comovement
same,colocalization of peptide-containing endosomal vesicles with GRAF1,"GFP-GRAF1 induced, mCherry-Cdc42 Q61L, 1 μM HF647-labeled Aβ(1-42), 40 min, confocal microscopy",did not colocalize
